Data on one substance can be found in paper doi:10.1101/2021.04.23.441074 (bioRxiv, 2021).

Protein sequences, listed by entry. Tags and fused reporters are not part of them.
UniProt Q9UQ84: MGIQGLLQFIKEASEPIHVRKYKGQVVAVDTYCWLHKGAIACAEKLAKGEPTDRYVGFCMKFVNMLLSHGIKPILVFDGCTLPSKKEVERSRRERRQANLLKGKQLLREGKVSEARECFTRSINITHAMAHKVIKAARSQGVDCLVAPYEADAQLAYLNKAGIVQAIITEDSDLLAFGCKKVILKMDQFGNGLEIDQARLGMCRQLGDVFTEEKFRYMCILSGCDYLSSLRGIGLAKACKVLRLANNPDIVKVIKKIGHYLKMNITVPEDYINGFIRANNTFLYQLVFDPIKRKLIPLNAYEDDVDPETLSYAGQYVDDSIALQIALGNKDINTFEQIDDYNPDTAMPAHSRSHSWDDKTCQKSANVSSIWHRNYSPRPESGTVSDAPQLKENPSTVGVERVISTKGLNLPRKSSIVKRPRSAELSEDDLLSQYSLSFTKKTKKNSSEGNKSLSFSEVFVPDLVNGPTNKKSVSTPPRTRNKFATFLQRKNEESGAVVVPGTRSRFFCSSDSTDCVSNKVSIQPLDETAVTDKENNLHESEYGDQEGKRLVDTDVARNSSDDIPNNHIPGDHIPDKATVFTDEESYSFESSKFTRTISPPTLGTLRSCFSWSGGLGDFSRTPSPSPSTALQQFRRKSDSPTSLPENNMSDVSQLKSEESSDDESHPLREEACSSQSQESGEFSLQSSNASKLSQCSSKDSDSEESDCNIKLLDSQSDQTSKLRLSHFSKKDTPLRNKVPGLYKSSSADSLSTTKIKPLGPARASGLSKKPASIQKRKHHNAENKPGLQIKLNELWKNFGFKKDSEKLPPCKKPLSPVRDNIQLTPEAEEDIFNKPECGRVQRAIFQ

No constants are given. Whether binding was seen depends on the method and setting. Binding seen in cells or lysates may run through a third protein.

The test addresses T1, SMARCAD1 (endogenous) (human (endogenous in HEK293T)) (UniProt Q9H4L7).
T1 sequence: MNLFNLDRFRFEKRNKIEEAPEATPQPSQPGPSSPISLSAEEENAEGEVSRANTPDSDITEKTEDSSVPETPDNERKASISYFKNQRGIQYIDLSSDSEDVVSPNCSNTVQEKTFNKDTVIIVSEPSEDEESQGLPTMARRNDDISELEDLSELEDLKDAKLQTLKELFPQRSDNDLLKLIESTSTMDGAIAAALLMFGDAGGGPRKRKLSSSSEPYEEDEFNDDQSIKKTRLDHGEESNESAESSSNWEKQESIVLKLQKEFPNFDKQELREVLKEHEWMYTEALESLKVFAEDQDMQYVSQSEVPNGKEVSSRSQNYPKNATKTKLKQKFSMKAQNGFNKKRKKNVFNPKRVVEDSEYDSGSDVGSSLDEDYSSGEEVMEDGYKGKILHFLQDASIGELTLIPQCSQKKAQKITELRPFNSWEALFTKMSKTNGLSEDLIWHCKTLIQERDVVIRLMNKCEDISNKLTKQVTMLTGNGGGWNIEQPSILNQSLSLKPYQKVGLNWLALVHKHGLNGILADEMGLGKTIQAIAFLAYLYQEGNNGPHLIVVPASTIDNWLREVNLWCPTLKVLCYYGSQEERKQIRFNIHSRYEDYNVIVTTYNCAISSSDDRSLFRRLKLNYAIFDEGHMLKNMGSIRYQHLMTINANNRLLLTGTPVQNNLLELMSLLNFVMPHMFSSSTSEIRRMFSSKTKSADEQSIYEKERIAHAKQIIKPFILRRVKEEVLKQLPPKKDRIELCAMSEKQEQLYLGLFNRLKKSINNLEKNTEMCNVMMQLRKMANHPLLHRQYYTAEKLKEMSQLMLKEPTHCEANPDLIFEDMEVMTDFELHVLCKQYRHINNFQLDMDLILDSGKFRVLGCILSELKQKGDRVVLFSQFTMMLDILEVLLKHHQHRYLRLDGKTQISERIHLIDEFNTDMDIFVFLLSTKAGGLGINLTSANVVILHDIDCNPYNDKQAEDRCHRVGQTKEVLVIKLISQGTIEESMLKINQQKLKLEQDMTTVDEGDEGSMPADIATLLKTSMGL
Description: co-IP.

Consider “EXO1 (endogenous) (from UniProt Q9UQ84 1-846)”, for which the binding result is “no binding”.
